Experimental data reported in PubChem BioAssay AID1347426 (Functional Genomics Laboratory (NCATS/FGL), 2020).
In all, about 31,000 sequences went through this assay and about 1,400 (4.5%) were called active.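 The calls were made as follows: active = median seed-adjusted z-score above 1 or below -1; inactive = the rest.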 The list shows a part of the results.

experiment: Novel Modifiers of Survival Motor Neuron (SMN) Protein: Gene Identification via Genome-wide siRNA Screen; details: HEK293T SMN2-luciferase reporter, siRNA knockdown, 72 h; actives lie on both sides;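 also: luminescence tracks full-length SMN protein made from the SMN2 reporter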
Summary of the method: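 Steps: spot 1 pmol siRNA, add Lipofectamine RNAiMax in serum-free DMEM, seed HEK293T SMN2–luciferase reporter cells; incubate 72 h at 37 °C; add ONE-Glo; normalize luminescence to control siRNA, log10, MAD. Candidates: |MAD| > 1.0.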

Sequence	median seed-adjusted z-score
CCACGUGUCCGGAAUAAAUTT against GLI4	inactive: 0.0798
GGGUUUUUGCGCUUCAAAATT against GALNAC4S-6ST	inactive: 0.218
GCCUACUUCAUUCAUCAUATT against KSR1	inactive: 0.0873
CAAUAUUGAGAGGAAAUCATT against PPP2CB	inactive: 0.486
CCAUCGUCAUCUCUGUGCATT against MAT1A	inactive: 0.501
GCCUGGUAGUGACAGUAGATT against STAP1	inactive: 0
CGACUUACAGGACAGCAGATT against AMACR	inactive: -0.591
CACCCAUCAUUCUUCAAGATT against SAAL1	inactive: 0.00224
GCACCUGGAAGGGAUGUCATT against PGAM2	inactive: -0.247
GGACUUACUAAAAGCUAAATT against CRKRS	active: -1.16
GAGUAGAAUUUAAGACAAATT against SOX8	inactive: 0.186
GGGACCCGAUGUUCACUUUTT against LILRA4	inactive: 0.109
CGAUAAGGCGAAAAUCGAUTT against CHRNA3	inactive: -0.359
GCUACUUUAUAUACGGAAATT against IL15	inactive: -0.139
CAGAUGCAGCACUCACUUUTT against MMP17	inactive: -0.653
CCUCGGAUCCAUUCACGAATT against EPS15L1	inactive: -0.0511
CUACUACAACCGCUGCUAUTT against WFIKKN1	inactive: 0
GGAGGUUAUCAGUGACGAATT against TUBB4	inactive: 0
GGCUGAUUGUAGCUUGUUATT against CLIC2	inactive: -0.0124
GUUUGAUCUUGUUGACUAUTT against ASPH	inactive: 0.0199
GGUUGGUACUGCUAAUAAATT against VCL	inactive: 0
CUCUCUCUCAGAUCACAAATT against GNB1	inactive: -0.166

Part of the list above, set out differently.
Sequence | median seed-adjusted z-score
GCACCUGGAAGGGAUGUCATT against PGAM2 | inactive: -0.247
CGAUAAGGCGAAAAUCGAUTT against CHRNA3 | inactive: -0.359

Next part:

Sequence	median seed-adjusted z-score
CUAACGAAGAUUCACCCAATT against ASPN	inactive: -0.0432
CCCUUUCUAUGACCUCAGATT against DERL3	inactive: 0.043
CCGGAGUUUUUGUUGAUAATT against ZEB2	inactive: 0.854
GCAUCGGGAAUAAAAUUUATT against LSM2	active: -1.48
GCCUGUGUGAGUCAGGAUATT against PRM3	inactive: 0.249
GUACUUCUGGAAUAACGAATT against PPP2R5A	inactive: 0.37
AAGUGAACGUGGAUGCAGUTT against HBD	inactive: 0
CAGCUUCAGGAGAAUGAAATT against PPP1CC	inactive: -0.344
GGAAGAGACUUGCUCAGUATT against MLF1	inactive: 0.258
CGGCGUAUCUUCACCAACATT against TAL1	inactive: -0.165
GUAUGAAGGAUAUAGUUGATT against UGT1A6	inactive: -0.0939
GCAUUGCCCUCUACGAUGUTT against DOCK8	inactive: 0.243
CAUACGAGGUAUUAUCAAATT against DNAJB7	inactive: 0.684
AGCUGUCCCUCUUUGCUGUTT against TREX2	inactive: -0.918
UGAGAGCCCUAUUCCAGUATT against UBASH3A	active: -1.1
GAUGUUAACCAGUAGAGCATT against SRCRB4D	inactive: -0.0568
ACAUAGUAAAGACUUUCUATT against PIGA	inactive: -0.0514
CCUUCAGGGUUGUACUGAATT against NPR1	inactive: -0.823
ACACGGAGAAUAUUCUGAATT against CACNG7	inactive: -0.403
AGGUGCACAUGGUACUACATT against RPUSD3	inactive: 0.303
GCAGCGGUAUGGGAAAAGATT against PYY	inactive: 0.437
CCUAUGACCUAGACUAUUATT against GPR1	inactive: 0.0609

Sequence	median seed-adjusted z-score
CGUCCUUUGUGGAGACCAATT against PLCB3	inactive: 0
CUCAUAAACUUGCUAUGGATT against PNPT1	inactive: 0.0729
AGUUCAAGGGCAUCAAGAATT against GTF2F1	inactive: -0.556
GCAUCCCGCAGGCAAUCUUTT against ONECUT3	inactive: -0.653
GACGGAGAAUUCUAUGAAATT against FSTL5	inactive: -0.881
CGGUUAAAGAAAACGAUGATT against FAHD1	inactive: -0.157
GCAUACCUGAGAUCUAUGATT against RGS1	inactive: 0.329
GGUUGGGAAUGUAUCGUGATT against TTC8	inactive: 0
GGCUGAGCAUUAUAAGAAATT against KRT6A	inactive: -0.146
AAAGCACAGUGUUAAAUGATT against TAC1	inactive: 0.0499
CGGGAAGUGUAAGAAGCAATT against ZNF341	inactive: 0.356
GGACUCCAACGGCUUCUCATT against SYT3	inactive: 0.221
GGAAGCUAAUAAAAACAUUTT against RGS20	inactive: -0.34
CUGGUGGUCCGAAACCAUATT against ACP6	inactive: -0.631
GUAAGACCCAUGUCAGAUATT against KIF21A	inactive: 0.53
GAGUGAUCCUUUCCAUGAATT against PTPRE	inactive: 0.619
CCAGGAGAGUAAAGACUCATT against MRPS28	inactive: -0.022
CGAUGUCUACUGUUGUGGATT against KCTD14	inactive: -0.166
CACCGUCACCUUUAACCAATT against STAB1	inactive: 0.264
GAUCCUCACAGAAUUUGAATT against TRIM31	inactive: -0.167
GCCUCGCUGUGAUCUGAUUTT against CACNG6	inactive: -0.0499
GGAGAUUGCUGGACAUAUATT against PUM1	inactive: 0.109

Part of the list above, set out differently.
Sequence,median seed-adjusted z-score
GCAUCCCGCAGGCAAUCUUTT against ONECUT3,inactive: -0.653
GAUCCUCACAGAAUUUGAATT against TRIM31,inactive: -0.167

(next part)

Sequence	median seed-adjusted z-score
CGCUCUACCAGACCUCCUATT against GSX1	inactive: 0.677
GCUUCUCGAUGUGAACGAATT against RUNX1T1	inactive: 0.181
AGCUCCACCUGACACCUUUTT against POLR3E	inactive: -0.55
GACCUAAAGUUGUGGGAGATT against SMARCE1	inactive: 0
GACCUCUACCGAGAUGUGATT against ZNF789	inactive: 0.0534
GGCAGAUGUUUUUCACGCATT against CAND1	inactive: 0.157
GCUUUACAGAGGUUCCGAATT against SKIV2L2	inactive: 0.642
GACAUAAUUAGAUUACGAATT against STK3	inactive: 0.108
GAAAGAACCUUUGAAUACATT against ZNF382	inactive: 0.601
GGCUUGAAAUCCCACAAAATT against ZNF175	inactive: -0.0194
GUAGGGACCUUAGAAAGGATT against DGAT2L6	inactive: -0.528
GAACCGUGAUGGUAUUAUATT against MYLPF	inactive: 0.348
GCUCUAUUCCCUCAAGUUUTT against KIFC3	inactive: 0.54
GCCUCUUCUUAGUUGAUGATT against RTN4	inactive: -0.0191
GGACUUUUGCGAGCAAGCATT against TSHZ1	inactive: 0.526
AGUUAGAGGUAGCAUUAUATT against FZD5	inactive: -0.129
GUACCUCAAUUUAAUAUCUTT against UGCGL2	inactive: -0.456
GGAAAUCAGCAUACUGGAATT against SLC24A6	inactive: -0.792
CAGCAACAAGAGCACCAGATT against SLC22A6	inactive: 0.135
CGAUGUGCAUUGAAGCGAATT against BMP2K	inactive: -0.51
GGAUCUCAAGUAUACCAUUTT against SND1	inactive: -0.0434
GAACAACACCAACAUAAGATT against SMOC1	inactive: 0.0453

Two entries from above, as comma-separated lines.
Sequence,median seed-adjusted z-score
GAAAGAACCUUUGAAUACATT against ZNF382,inactive: 0.601
GGCUUGAAAUCCCACAAAATT against ZNF175,inactive: -0.0194

Following part:

Sequence	median seed-adjusted z-score
GGACAACACGUACAUCGUATT against SULF2	inactive: -0.109
CACGUACUGUGAAUACAGATT against KIF21A	inactive: 0.53
CCUUGACCCAGUCUAUUUATT against SCARA3	inactive: -0.05
GAAGUAAGACAGUAGAUGATT against SENP7	inactive: 0.547
GAGUAGUAUUUCUUUUCUATT against NEU1	inactive: -0.425
CCAUUGUGGUUAUUAUGCUTT against TLR10	inactive: -0.363
GCAUGAUGAUUAUUUCCAATT against FLJ12529	inactive: 0.852
CCUUAGGAAUGAAAUCGCUTT against SIPA1L1	inactive: 0.0925
CAUGAGAUACGAUACACUATT against TRMT6	inactive: 0.069
CAUUGUCGUUGGUGCAGUATT against ADCY10	inactive: -0.573
CAAACUAGAGAGAAAGUCUTT against ZNF556	inactive: 0
CAACCACCCUCACAUCAUUTT against NUAK2	inactive: -0.0601
CCAAGCGAGAAGUACCUAATT against APC	inactive: 0.154
GCUUAUGACUGCACCAACATT against FPGS	inactive: -0.853
GAAAUGUCAUAACUGCAAATT against CRYM	inactive: -0.373
CAAAGGAGCUAAACACCUUTT against UGT2B7	inactive: 0.313
CGAUGACUCCUCCGACUUUTT against PTPN3	inactive: -0.535
GUAGAGAUGUCAUUACCUATT against GTF3C2	inactive: 0.32
CCGUCAAGGUCGUCAUACATT against NTSR1	active: -1.1
CCUCUGAAGCUACAACAGATT against IRF1	inactive: 0.831
